Measurements as given in patent publication US11866518B2 (BicycleTx Limited, priority 2020, dated 2024).

Assay: general procedure: Fmoc solid-phase peptide synthesis; Rink Amide ChemMatrix resin (100-200 mesh), Biotage, loading around 0.5 mmol/g, unless otherwise stated
Conditions: cyclisation step; for final LC-MS purity: LCMS and HRMS

Substance: Ac-Cys-(NMe-Ala)-(NMe-Trp)-(tBu-Ala)-Gln-Asp-Cys-(NMe-Trp)-(dimethyl-Arg)-Gly-(4-F-Phe)-Cys-NH2
- cyclisation yield: 19%
- final LC-MS purity: purity 93%

Substance: C-(NMe-Ala)-(1-naphthyl-Ala)-(tBu-Ala)-Q-D-C-(NMe-Trp)-(dimethyl-Arg)-G-(4-F-Phe)-C-a-NH2
- cyclisation yield: 17%
- final LC-MS purity: purity 90%
